# Results reported in PubChem BioAssay AID1259415 (National Center for Advancing Translational Sciences (NCATS), 2018).
# About 18,000 (4.4%) of roughly 410,000 compounds were called active. Inconclusive results, whose numbers are uncertain, are shown with a selection of clear calls. Rule as the data show it: active = activity change below about -60%; inconclusive = no clear call, values can overlap the other calls; inactive = above about -39%.
# Experiment: qHTS Assay for inhibitors of the human cytomegalovirus (HCMV)
# Details: HFF cells, HCMV-luciferase reporter, 72 h; at 57.5 µM; stronger effect = lower value
# Summary of the method: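 HFF cells seeded 16 h at 37C, treated with compounds, infected with luciferase-reporter HCMV at MOI 1 PFU/cell; luciferase read at 72 h post infection, normalized to buffer-only and Salinomycin controls.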
# % is scaled to controls: 0 for no effect and ±100 for the full control effect.
row,SMILES,"activity change, negative = inhibition"
1,Cc1cc(-c2n[nH]c(=S)n2/N=C/C(Cl)=C/c2ccccc2)n[nH]1,inactive: 76.1%
2,COc1ccc(C2CCCN2C(=S)Nc2ccc(C)c(C)c2)cc1OC (centres undefined),inconclusive: -41.2%
3,O=C(O)CSc1nc2sc3c(c2c(=O)n1Cc1ccccc1)CCCCC3,inconclusive: -54.4%
4,O=C(Nc1ccc(F)cc1)Nc1nnc(SCC(=O)N2CCCCC2)s1,active: -74.9%
5,COC[C@@H]1CCCN1c1ccc2c(c1)O[C@H](COCc1ccccc1)CN([C@@H](C)c1ccccc1)S2(=O)=O,inactive: -10.2%
6,Cc1cc(N2CCOCC2)n2nc(C)c(-c3ccc(Cl)cc3)c2n1,inconclusive: -40.8%
7,CCc1ccc(S(=O)(=O)NC(CC(=O)O)c2ccccc2)cc1 (centres undefined),inconclusive: -47.9%
8,CNS(=O)(=O)c1cc(N(C)S(=O)(=O)c2ccc(C)cc2)c(C)cc1C,inconclusive: -53.3%
9,O=c1c2ccccc2nc2n1C(CSCc1ccc(Cl)cc1)CS2 (centres undefined),inconclusive: -41.1%
10,COc1ccc(N2CCN(CCCNC(=O)c3ccc(CS(=O)(=O)c4ccc(Cl)cc4)o3)CC2)cc1,inconclusive: -41.1%
11,CCOc1ccc(NC(=O)c2c(NC(=O)c3ccncc3)sc3c2CCC(C(C)(C)C)C3)cc1 (centres undefined),inactive: 13.2%
12,CCN(CC)S(=O)(=O)c1ccc(S(=O)(=O)Nc2c(C)nn(C)c2C)cc1,active: -72.9%
13,Cc1ccc(C(=O)N[C@H](C(=O)OCC(=O)Nc2cccc(S(N)(=O)=O)c2)C(C)C)cc1,inconclusive: -57%
14,COc1cccc(C(=O)C2CN(c3ccccc3)CC2c2ccc(Cl)cc2)c1 (centres undefined),inactive: -27.9%
15,COc1ccc(NC(=O)c2ccco2)cc1NC(=O)COc1cc(C)ccc1C(C)C,active: -79.4%
16,Cc1sc2nc(CSCC(=O)N(C)c3ccccc3)[nH]c(=O)c2c1C,inconclusive: -42%
17,CCCS(=O)(=O)N1CCCC(c2nc(-c3ccc(OC)cc3)no2)C1 (centres undefined),inactive: -32.7%
18,CC(=O)Nc1cccc(N=NN2CCOCC2)c1,inconclusive: -43.8%
19,Cc1ccc(-c2noc(CCC(=O)Nc3ccccc3N3CCN(C)CC3)n2)cc1,active: -68.8%
20,O=C(NC1CC1)c1cccc(NC(=O)C2CCCC2)c1,inactive: -31%
21,c1ccc(-c2nnc(SCC3CCCO3)nc2-c2ccccc2)cc1 (centres undefined),inconclusive: -42.6%
22,CCCN1CCC(=O)N(CCSc2ccccc2)CC1,inactive: 76.5%

row,SMILES,"activity change, negative = inhibition"
1,CCOC(=O)/C(C#N)=C1/C=C(C)c2ccccc2N1,inconclusive: -41.7%
2,CCCCCCOc1ccc(NC(=O)CC2C(=O)N(CC)C(=S)N2Cc2ccco2)cc1 (centres undefined),active: -90.2%
3,COc1ccc(C/C(C)=N/NC(=O)c2cc(C)oc2C)cc1,inconclusive: -43%
4,COC(=O)c1ccc(N2C(=O)C3CC=CC(C)C3C2=O)cc1 (centres undefined),inconclusive: -46.2%
5,CCC(C(=O)Nc1ccc(F)cc1F)n1nc(-c2ccccc2)c2c(c1=O)CCCC2 (centres undefined),inconclusive: -54.2%
6,O=c1[nH]ncc(N/N=C\c2cccs2)c1Cl,inactive: 121%
7,O=C(CN1CCN(c2nc(-c3ccc(Cl)cc3)cs2)CC1)NCc1ccco1,inconclusive: -41.9%
8,COc1cccc(CNC(=O)CSc2nnc(C)c3c(C)n(-c4ccccc4)nc23)c1,inconclusive: -42.1%
9,CN1CCCC1CCNc1ccc2c(=O)c3ccccc3oc2c1 (centres undefined),inactive: 59.8%
10,CC(=O)N1CCCc2cc(S(=O)(=O)N3CCCC(C(=O)N4CCN(c5ccccc5F)CC4)C3)ccc21 (centres undefined),inconclusive: -49.6%
11,COC(=O)c1c(C)[nH]c(C(=O)/C=C/c2ccc(Cl)cc2)c1C,active: -85.4%
12,O=C(Nc1ccc(N2CCN(C(=O)c3ccccc3)CC2)cc1)c1cc2ccccc2o1,active: -65.9%
13,O=C(Nc1cccc(Cl)c1)c1csc([C@@H]2C[C@H](O)[C@@H](CO)O2)n1,inconclusive: -50.8%
14,CN(CCCN1CCOCC1)C(=O)c1cc(COc2cccc(C(F)(F)F)c2)on1,inconclusive: -47.8%
15,Nc1nc2ccccc2n1/N=C/c1ccc([N+](=O)[O-])s1,inconclusive: -54.4%
16,COC(=O)[C@@]12C[C@@H](CC(=O)NCCc3ccccc3OC)C(=O)N(CCc3ccc(OC)c(OC)c3)C1=CCC(C)(C)C2,inactive: 13.3%
17,Cc1nc2sc(C(c3ccco3)N3CCN(C(c4ccccc4)c4ccccc4)CC3)c(O)n2n1 (centres undefined),inactive: -32.4%
18,Cn1c(-c2ccccc2)c[n+]2c1-c1ccccc1C2,inconclusive: -58.4%
19,CCOC(=O)c1nnn(-c2nonc2N)c1-c1ccc(Cl)cc1,inconclusive: -45.6%
20,CCOC(=O)CNC(=O)CSc1nc2c(C)cccc2cc1CC,inconclusive: -40.3%
21,S=C(NCCC(c1ccccc1)c1ccccc1)Nc1cccc(Cl)c1,inactive: -33.7%
22,CCOc1ccc2nc(SCC#N)c(C#N)cc2c1,active: -67.9%

# Entries listed so far with two or more sulfur atoms:
row,SMILES,"activity change, negative = inhibition"
3,O=C(O)CSc1nc2sc3c(c2c(=O)n1Cc1ccccc1)CCCCC3,inconclusive: -54.4%
4,O=C(Nc1ccc(F)cc1)Nc1nnc(SCC(=O)N2CCCCC2)s1,active: -74.9%
8,CNS(=O)(=O)c1cc(N(C)S(=O)(=O)c2ccc(C)cc2)c(C)cc1C,inconclusive: -53.3%
9,O=c1c2ccccc2nc2n1C(CSCc1ccc(Cl)cc1)CS2 (centres undefined),inconclusive: -41.1%
12,CCN(CC)S(=O)(=O)c1ccc(S(=O)(=O)Nc2c(C)nn(C)c2C)cc1,active: -72.9%
16,Cc1sc2nc(CSCC(=O)N(C)c3ccccc3)[nH]c(=O)c2c1C,inconclusive: -42%
